The other results are listed elsewhere or left out. Single values are uncertain, as repeats are few or missing.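 Cells were imaged in 1,536-well plates, and nuclei stained with an antibody against cleaved PARP were counted against all DNA-stained nuclei to give the apoptosis fraction. Screening doses were chosen to leave most cells alive, and resting and induced cleaved-PARP levels differ strongly between cell lines.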
Experiments:
Test in all cases: cleaved PARP positive nuclei fraction relative to DMSO control; melanoma cells; higher = more apoptosis
Settings in all cases: library dose: low library concentration; 72 h
WM115 = system: WM115
WM1716 = system: WM1716
WM1745 = system: WM1745
WM3526 = system: WM3526
WM3619 = system: WM3619
WM451Lu = system: WM451Lu

Row | SMILES | cleaved PARP positive nuclei fraction (WM115) | cleaved PARP positive nuclei fraction (WM1716) | cleaved PARP positive nuclei fraction (WM1745) | cleaved PARP positive nuclei fraction (WM3526) | cleaved PARP positive nuclei fraction (WM3619) | cleaved PARP positive nuclei fraction (WM451Lu)
1 | O=c1[nH]nc(Sc2ncc([N+](=O)[O-])s2)n1-c1ccc2c(c1)OCCO2 + CN(c1ncccc1CNc1nc(Nc2ccc3c(c2)CC(=O)N3)ncc1C(F)(F)F)S(C)(=O)=O [PF562271] (first compound 0.2 µM, partner dose 0.08 µM) | 121% | 149% | 107% | 78.6% | 102% | 102%
2 | O=C(/C=C/c1cccnc1)NCCCCC1CCN(C(=O)c2ccccc2)CC1 + Cn1cc(/C=C2\C(=O)Nc3cccnc32)c2ccccc21 [GW441756] (first compound 0.01 µM, partner dose 0.4 µM) | 124% | 86.6% | 99.9% | 143% | 101% | 33.3%
3 | COc1cc([C@@H]2c3cc4c(cc3[C@@H](O[C@@H]3O[C@@H]5CO[C@@H](C)O[C@H]5[C@H](O)[C@H]3O)[C@H]3COC(=O)[C@H]23)OCO4)cc(OC)c1O [etoposide] + Cn1c(Nc2ccc(C(F)(F)F)cc2)nc2cc(Oc3ccnc(-c4ncc(C(F)(F)F)[nH]4)c3)ccc21 [CHIR265] (first compound 0.02 µM, partner dose 0.08 µM) | 933% | 194% | 159% | 148% | 123% | 51.7%
4 | CCCCCCCCCCCCCCCCCCOP(=O)([O-])OC1CC[N+](C)(C)CC1 [Perifosine] + Nc1nc(F)nc2c1ncn2[C@@H]1O[C@H](CO)[C@@H](O)[C@@H]1O [fludarabine] (first compound 0.4 µM, partner dose 0.2 µM) | 145% | 75% | 106% | 168% | 101% | 117%
5 | O=c1[nH]nc(Sc2ncc([N+](=O)[O-])s2)n1-c1ccc2c(c1)OCCO2 + C[C@@H](N)c1ccc(C(=O)Nc2ccnc3[nH]ccc23)cc1 [RKI983] (first compound 0.2 µM, partner dose 0.4 µM) | 24.9% | 250% | 98.1% | 63.8% | 203% | 118%
6 | CCCCCCCCCCCCCCCCCCOP(=O)([O-])OC1CC[N+](C)(C)CC1 [Perifosine] + O=C(O)C(=O)Nc1sc2c(c1C(=O)O)CCNC2 [TCS401] (first compound 0.4 µM, partner dose 1.66667 µM) | 122% | 74% | 114% | 72.6% | 114% | 40.1%
7 | O=C(Nc1cc(C(F)(F)F)cc(C(F)(F)F)c1)c1cc(Cl)ccc1O + Cn1sc(=O)n(Cc2ccccc2)c1=O [TDZD-8] (first compound 0.016 µM, partner dose 0.4 µM) | 123% | 206% | 104% | 38.2% | 92.5% | 82.9%
8 | CC[C@]1(O)C[C@H]2CN(CCc3c([nH]c4ccccc34)[C@@](C(=O)OC)(c3cc4c(cc3OC)N(C=O)[C@H]3[C@@](O)(C(=O)OC)[C@H](OC(C)=O)[C@]5(CC)C=CCN6CC[C@]43[C@@H]65)C2)C1 [vincristine] + COC(=O)c1sccc1S(=O)(=O)Nc1ccc(Nc2ccccc2)cc1OC [GSK0660] (first compound 0.0001 µM, partner dose 1 µM) | 1430% | 194% | 106% | 62% | 159% | 473%
9 | O=C(/C=C/c1cccnc1)NCCCCC1CCN(C(=O)c2ccccc2)CC1 + CC(C)CCN1c2nc(Nc3cc(F)c(O)c(F)c3)ncc2N(C)C(=O)C1C [BID1870] (first compound 0.01 µM, partner dose 0.2 µM) | 125% | 23.8% | 82.1% | 98.8% | 94.1% | 19.9%
10 | Cc1cn(-c2cc(NC(=O)c3ccc(C)c(Nc4nccc(-c5cccnc5)n4)c3)cc(C(F)(F)F)c2)cn1 [nilotinib] + CCCCCCCCc1ccc(CCC(N)(CO)CO)cc1 [fingolimod] (first compound 0.2 µM, partner dose 2 µM) | 245% | 75.8% | 111% | 46.9% | 105% | 37.4%
11 | O=C(/C=C/c1cccnc1)NCCCCC1CCN(C(=O)c2ccccc2)CC1 + CN(NC(=O)CC(=O)NN(C)C(=S)c1ccccc1)C(=S)c1ccccc1 [STA4783] (first compound 0.01 µM, partner dose 0.006 µM) | 300% | 196% | 321% | 56.2% | 228% | 82.1%
12 | Cc1cc(Nc2cc(N3CCN(C)CC3)nc(Sc3ccc(NC(=O)C4CC4)cc3)n2)n[nH]1 [Tozasertib] + CCc1ccc(CCOc2ccc(CC3SC(=O)NC3=O)cc2)nc1 [pioglitazone] (first compound 0.006 µM, partner dose 2 µM) | 108% | 114% | 110% | 71.6% | 97.3% | 227%
13 | COc1cc([C@@H]2c3cc4c(cc3[C@@H](O[C@@H]3O[C@@H]5CO[C@@H](C)O[C@H]5[C@H](O)[C@H]3O)[C@H]3COC(=O)[C@H]23)OCO4)cc(OC)c1O [etoposide] + C[C@]1(O)C[C@@H](c2nc(-c3ccc4ccc(-c5ccccc5)nc4c3)c3c(N)nccn32)C1 [OSI906] (first compound 0.02 µM, partner dose 0.4 µM) | 283% | 108% | 118% | 43.2% | 103% | 119%
14 | O=c1[nH]nc(Sc2ncc([N+](=O)[O-])s2)n1-c1ccc2c(c1)OCCO2 + O=C(O)c1ccc(-c2c[nH]c3ncc(-c4ccccc4)cc23)cc1C1CCCC1 [GSK650394] (first compound 0.2 µM, partner dose 0.16 µM) | 60.3% | 51.6% | 95% | 56.4% | 112% | 108%
15 | N#CC[C@H](C1CCCC1)n1cc(-c2ncnc3[nH]ccc23)cn1 [ruxolitinib] + COc1cc(Nc2ncc(F)c(Nc3ccc4c(n3)NC(=O)C(C)(C)O4)n2)cc(OC)c1OC [Tamatinib] (first compound 1 µM, partner dose 0.4 µM) | 84.6% | 135% | 142% | 60.4% | 109% | 80.6%
16 | N#CC[C@H](C1CCCC1)n1cc(-c2ncnc3[nH]ccc23)cn1 [ruxolitinib] + C=CCn1c(=O)c2cnc(Nc3ccc(N4CCN(C)CC4)cc3)nc2n1-c1cccc(C(C)(C)O)n1 [MK1775] (first compound 1 µM, partner dose 0.02 µM) | 69.8% | 129% | 115% | 117% | 80.8% | 195%
17 | O=c1[nH]nc(Sc2ncc([N+](=O)[O-])s2)n1-c1ccc2c(c1)OCCO2 + Cn1sc(=O)n(Cc2ccccc2)c1=O [TDZD-8] (first compound 0.2 µM, partner dose 0.4 µM) | 114% | 577% | 102% | 70.7% | 106% | 269%
18 | CC[C@]1(O)C[C@H]2CN(CCc3c([nH]c4ccccc34)[C@@](C(=O)OC)(c3cc4c(cc3OC)N(C=O)[C@H]3[C@@](O)(C(=O)OC)[C@H](OC(C)=O)[C@]5(CC)C=CCN6CC[C@]43[C@@H]65)C2)C1 [vincristine] + CN1CCN(c2ccc3nc(-c4c(N)c5c(F)cccc5[nH]c4=O)[nH]c3c2)CC1 [Dovitinib] (first compound 0.0001 µM, partner dose 0.1 µM) | 920% | 301% | 97.2% | 199% | 193% | 88.7%
19 | Cc1cc(Nc2cc(N3CCN(C)CC3)nc(Sc3ccc(NC(=O)C4CC4)cc3)n2)n[nH]1 [Tozasertib] + CO[C@H]1C[C@@H]2CC[C@@H](C)[C@@](O)(O2)C(=O)C(=O)N2CCCC[C@H]2C(=O)O[C@H]([C@H](C)C[C@@H]2CC[C@@H](OCCO)[C@H](OC)C2)CC(=O)[C@H](C)/C=C(\C)[C@@H](O)[C@@H](OC)C(=O)[C@H](C)C[C@H](C)/C=C/C=C/C=C/1C [everolimus] (first compound 0.006 µM, partner dose 0.02 µM) | 144% | 556% | 139% | 116% | 115% | 44.3%
20 | Cc1ccc(Nc2nccc(N(C)c3ccc4c(C)n(C)nc4c3)n2)cc1S(N)(=O)=O [Pazopanib] + CN(NC(=O)CC(=O)NN(C)C(=S)c1ccccc1)C(=S)c1ccccc1 [STA4783] (first compound 0.4 µM, partner dose 0.006 µM) | 112% | 305% | 223% | 58.7% | 144% | 80.9%
21 | COc1cc([C@@H]2c3cc4c(cc3[C@@H](O[C@@H]3O[C@@H]5CO[C@@H](C)O[C@H]5[C@H](O)[C@H]3O)[C@H]3COC(=O)[C@H]23)OCO4)cc(OC)c1O [etoposide] + CS(=O)(=O)CCNCc1ccc(-c2ccc3ncnc(Nc4ccc(OCc5cccc(F)c5)c(Cl)c4)c3c2)o1 [lapatinib] (first compound 0.02 µM, partner dose 0.8 µM) | 38.9% | 78.4% | 227% | 49.5% | 112% | 44.6%
22 | O=C(Nc1cc(C(F)(F)F)cc(C(F)(F)F)c1)c1cc(Cl)ccc1O + Nc1cccc2c1CN(C1CCC(=O)NC1=O)C2=O [lenalidomide] (first compound 0.016 µM, partner dose 1 µM) | 74.4% | 81% | 74.3% | 61.6% | 102% | 166%

Just cleaved PARP positive nuclei fraction (WM1745), for some of the entries so far:
Row	SMILES	cleaved PARP positive nuclei fraction (WM1745)
6	CCCCCCCCCCCCCCCCCCOP(=O)([O-])OC1CC[N+](C)(C)CC1 [Perifosine] + O=C(O)C(=O)Nc1sc2c(c1C(=O)O)CCNC2 [TCS401] (first compound 0.4 µM, partner dose 1.66667 µM)	114%
7	O=C(Nc1cc(C(F)(F)F)cc(C(F)(F)F)c1)c1cc(Cl)ccc1O + Cn1sc(=O)n(Cc2ccccc2)c1=O [TDZD-8] (first compound 0.016 µM, partner dose 0.4 µM)	104%

— the supplement of paper PMC4604168 (melanoma cell lines)
